This note sets out measurements from the supplement of paper PMC12819154, “High-throughput peptide-centric local stability assay extends protein–ligand identification to membrane proteins, tissues and bacteria” (Nature Structural & Molecular Biology, 2025).

Sequences of proteins named here, by UniProt entry; tags and fusion partners are left off. A change or cut given only in a name is not applied to a line headed by its entry.
UniProt Q9Y3A5: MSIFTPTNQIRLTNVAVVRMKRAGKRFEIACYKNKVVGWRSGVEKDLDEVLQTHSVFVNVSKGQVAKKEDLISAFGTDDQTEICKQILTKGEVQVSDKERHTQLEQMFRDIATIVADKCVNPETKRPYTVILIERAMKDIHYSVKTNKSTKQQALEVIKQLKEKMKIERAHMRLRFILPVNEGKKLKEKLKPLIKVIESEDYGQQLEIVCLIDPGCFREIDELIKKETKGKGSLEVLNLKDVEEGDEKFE
UniProt Q9Y320, whole entry: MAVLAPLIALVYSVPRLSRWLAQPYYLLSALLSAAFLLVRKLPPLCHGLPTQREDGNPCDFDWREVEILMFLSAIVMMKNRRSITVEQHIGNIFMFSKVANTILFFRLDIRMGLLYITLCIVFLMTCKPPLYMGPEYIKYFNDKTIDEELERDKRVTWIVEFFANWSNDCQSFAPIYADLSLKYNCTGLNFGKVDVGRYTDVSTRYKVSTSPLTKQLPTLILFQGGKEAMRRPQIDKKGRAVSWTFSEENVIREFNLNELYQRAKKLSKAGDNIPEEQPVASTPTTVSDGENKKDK
UniProt Q9UL12: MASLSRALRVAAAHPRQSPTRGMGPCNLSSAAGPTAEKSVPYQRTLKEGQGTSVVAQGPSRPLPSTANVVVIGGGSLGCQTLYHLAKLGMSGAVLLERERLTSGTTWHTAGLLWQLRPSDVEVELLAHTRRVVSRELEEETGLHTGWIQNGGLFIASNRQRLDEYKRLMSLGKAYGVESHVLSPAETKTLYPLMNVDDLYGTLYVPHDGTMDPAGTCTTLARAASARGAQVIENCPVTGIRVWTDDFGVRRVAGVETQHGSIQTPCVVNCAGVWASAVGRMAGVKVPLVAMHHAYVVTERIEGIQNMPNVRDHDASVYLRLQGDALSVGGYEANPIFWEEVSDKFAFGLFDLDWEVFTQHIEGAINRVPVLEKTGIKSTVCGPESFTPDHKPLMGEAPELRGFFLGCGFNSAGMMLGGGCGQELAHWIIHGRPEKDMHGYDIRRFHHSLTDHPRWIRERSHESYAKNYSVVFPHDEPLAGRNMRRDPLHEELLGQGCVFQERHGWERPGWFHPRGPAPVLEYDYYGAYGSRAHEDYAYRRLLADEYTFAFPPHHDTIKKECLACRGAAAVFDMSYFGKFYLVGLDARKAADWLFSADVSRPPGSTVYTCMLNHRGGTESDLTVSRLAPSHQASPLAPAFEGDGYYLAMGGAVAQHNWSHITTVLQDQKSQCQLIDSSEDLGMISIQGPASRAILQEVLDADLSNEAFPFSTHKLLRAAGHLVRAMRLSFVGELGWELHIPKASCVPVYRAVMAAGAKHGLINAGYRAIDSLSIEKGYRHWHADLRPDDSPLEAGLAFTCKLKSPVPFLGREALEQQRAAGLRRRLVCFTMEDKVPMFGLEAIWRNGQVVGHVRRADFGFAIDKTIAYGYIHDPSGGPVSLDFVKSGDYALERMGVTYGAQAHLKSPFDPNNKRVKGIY
UniProt Q9ULZ2: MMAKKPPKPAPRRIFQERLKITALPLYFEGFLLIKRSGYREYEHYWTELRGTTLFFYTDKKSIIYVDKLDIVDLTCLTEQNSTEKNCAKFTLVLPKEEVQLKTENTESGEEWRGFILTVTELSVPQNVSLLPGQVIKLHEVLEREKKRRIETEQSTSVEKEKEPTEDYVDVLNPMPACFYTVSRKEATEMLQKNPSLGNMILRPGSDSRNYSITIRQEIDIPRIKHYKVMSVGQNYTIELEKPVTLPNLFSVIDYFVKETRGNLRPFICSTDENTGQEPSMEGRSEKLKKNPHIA
UniProt Q9UPZ3: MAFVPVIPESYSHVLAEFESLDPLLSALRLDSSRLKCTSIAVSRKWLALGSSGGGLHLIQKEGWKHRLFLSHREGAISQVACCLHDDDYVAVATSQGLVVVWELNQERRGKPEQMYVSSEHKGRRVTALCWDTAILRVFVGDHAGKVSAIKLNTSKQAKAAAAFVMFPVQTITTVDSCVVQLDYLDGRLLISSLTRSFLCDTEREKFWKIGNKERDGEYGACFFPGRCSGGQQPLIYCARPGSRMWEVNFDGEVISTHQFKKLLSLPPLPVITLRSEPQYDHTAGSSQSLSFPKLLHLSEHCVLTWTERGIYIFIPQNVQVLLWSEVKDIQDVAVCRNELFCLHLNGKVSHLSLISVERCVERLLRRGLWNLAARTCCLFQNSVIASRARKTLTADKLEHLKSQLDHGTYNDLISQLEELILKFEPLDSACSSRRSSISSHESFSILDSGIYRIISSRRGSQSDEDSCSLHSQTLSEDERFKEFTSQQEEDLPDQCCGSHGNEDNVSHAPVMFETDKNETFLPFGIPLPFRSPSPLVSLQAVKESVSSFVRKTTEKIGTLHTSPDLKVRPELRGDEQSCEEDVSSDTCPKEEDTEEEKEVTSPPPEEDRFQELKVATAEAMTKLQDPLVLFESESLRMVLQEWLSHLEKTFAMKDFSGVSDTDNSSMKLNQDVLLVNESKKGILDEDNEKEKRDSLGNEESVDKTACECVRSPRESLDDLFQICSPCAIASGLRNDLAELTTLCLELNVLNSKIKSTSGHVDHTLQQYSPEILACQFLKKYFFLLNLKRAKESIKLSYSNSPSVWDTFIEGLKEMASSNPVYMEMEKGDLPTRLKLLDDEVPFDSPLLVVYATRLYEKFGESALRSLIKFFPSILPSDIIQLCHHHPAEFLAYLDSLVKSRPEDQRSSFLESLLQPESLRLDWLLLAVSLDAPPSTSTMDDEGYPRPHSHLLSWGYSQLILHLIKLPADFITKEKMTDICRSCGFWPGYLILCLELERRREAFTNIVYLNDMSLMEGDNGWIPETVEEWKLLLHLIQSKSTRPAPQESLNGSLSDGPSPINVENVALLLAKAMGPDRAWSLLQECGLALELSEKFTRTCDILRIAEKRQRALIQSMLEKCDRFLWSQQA
UniProt Q9UPT8: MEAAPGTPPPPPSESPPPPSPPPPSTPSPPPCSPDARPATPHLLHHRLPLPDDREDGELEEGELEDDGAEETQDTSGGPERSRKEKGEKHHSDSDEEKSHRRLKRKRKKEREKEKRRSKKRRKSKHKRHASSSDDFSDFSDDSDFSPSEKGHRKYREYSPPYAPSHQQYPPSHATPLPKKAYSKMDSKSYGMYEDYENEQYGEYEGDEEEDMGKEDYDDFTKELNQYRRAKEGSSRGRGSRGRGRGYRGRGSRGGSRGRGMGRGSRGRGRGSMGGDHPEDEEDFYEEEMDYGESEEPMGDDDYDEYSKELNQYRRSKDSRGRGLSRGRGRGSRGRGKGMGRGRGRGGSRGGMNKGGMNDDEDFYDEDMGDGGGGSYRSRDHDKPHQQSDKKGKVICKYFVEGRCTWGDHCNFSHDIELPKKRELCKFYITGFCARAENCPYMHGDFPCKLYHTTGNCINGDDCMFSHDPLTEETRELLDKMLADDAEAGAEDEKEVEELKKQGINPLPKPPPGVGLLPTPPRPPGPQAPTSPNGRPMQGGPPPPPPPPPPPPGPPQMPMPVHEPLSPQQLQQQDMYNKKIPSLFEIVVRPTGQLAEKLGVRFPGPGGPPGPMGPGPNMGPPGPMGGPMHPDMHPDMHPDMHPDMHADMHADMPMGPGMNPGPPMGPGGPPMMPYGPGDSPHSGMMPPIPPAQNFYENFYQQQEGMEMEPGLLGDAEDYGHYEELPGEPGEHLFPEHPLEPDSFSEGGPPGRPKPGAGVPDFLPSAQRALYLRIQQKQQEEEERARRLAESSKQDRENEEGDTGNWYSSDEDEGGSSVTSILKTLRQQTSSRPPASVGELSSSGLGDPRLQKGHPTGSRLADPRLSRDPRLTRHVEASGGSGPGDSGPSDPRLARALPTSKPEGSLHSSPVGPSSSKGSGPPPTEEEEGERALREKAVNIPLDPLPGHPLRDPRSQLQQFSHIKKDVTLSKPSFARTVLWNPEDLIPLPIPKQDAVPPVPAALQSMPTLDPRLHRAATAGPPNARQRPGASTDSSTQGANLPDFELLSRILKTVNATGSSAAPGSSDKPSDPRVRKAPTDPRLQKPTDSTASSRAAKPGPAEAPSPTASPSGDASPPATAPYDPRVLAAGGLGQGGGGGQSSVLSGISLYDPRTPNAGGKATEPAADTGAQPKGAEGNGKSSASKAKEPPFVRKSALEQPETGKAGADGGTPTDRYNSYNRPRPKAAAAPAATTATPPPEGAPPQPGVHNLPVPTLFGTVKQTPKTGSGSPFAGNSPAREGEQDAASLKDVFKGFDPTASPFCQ
UniProt Q9UQR1: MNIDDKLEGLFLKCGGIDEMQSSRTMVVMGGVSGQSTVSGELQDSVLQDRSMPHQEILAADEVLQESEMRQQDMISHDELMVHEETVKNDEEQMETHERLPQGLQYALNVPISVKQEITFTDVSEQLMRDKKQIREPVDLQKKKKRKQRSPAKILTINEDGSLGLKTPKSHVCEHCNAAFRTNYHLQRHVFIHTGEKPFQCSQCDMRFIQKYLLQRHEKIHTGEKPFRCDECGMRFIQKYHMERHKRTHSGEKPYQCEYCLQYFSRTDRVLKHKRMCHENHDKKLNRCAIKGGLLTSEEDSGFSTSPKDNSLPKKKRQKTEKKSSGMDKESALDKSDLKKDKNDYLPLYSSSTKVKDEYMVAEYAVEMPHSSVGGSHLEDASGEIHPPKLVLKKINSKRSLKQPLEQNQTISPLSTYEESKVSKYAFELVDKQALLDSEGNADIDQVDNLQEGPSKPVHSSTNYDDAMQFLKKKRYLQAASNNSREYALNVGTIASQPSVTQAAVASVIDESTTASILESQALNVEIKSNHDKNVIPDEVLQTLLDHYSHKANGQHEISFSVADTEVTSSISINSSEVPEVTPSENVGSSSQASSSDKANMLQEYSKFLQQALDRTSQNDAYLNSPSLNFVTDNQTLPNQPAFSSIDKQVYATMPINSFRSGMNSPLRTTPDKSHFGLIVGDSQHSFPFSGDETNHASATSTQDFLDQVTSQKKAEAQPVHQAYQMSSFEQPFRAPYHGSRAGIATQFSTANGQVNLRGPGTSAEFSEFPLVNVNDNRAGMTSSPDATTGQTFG
UniProt Q9Y2J0: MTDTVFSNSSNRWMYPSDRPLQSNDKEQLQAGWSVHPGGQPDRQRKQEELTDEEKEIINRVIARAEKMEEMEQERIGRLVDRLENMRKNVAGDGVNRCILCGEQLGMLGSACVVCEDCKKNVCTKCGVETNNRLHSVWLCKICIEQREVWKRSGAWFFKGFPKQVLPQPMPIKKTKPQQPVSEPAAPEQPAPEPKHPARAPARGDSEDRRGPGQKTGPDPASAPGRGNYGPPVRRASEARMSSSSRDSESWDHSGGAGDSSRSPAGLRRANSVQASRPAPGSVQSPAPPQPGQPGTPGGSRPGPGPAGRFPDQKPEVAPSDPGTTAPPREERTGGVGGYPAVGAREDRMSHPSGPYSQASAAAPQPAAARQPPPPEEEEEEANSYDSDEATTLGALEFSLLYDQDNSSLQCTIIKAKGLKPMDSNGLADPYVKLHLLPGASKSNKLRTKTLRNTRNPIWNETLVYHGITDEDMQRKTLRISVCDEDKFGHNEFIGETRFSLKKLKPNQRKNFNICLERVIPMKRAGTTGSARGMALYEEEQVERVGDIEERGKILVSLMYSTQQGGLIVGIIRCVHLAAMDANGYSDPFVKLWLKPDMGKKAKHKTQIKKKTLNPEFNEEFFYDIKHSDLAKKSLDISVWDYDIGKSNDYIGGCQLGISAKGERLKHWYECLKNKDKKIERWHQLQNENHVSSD
UniProt Q9Y343: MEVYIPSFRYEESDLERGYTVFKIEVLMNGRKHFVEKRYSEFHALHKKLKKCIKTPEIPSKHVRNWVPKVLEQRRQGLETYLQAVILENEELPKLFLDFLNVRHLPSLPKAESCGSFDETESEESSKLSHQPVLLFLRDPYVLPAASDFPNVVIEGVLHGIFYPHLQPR
UniProt Q9Y2W2: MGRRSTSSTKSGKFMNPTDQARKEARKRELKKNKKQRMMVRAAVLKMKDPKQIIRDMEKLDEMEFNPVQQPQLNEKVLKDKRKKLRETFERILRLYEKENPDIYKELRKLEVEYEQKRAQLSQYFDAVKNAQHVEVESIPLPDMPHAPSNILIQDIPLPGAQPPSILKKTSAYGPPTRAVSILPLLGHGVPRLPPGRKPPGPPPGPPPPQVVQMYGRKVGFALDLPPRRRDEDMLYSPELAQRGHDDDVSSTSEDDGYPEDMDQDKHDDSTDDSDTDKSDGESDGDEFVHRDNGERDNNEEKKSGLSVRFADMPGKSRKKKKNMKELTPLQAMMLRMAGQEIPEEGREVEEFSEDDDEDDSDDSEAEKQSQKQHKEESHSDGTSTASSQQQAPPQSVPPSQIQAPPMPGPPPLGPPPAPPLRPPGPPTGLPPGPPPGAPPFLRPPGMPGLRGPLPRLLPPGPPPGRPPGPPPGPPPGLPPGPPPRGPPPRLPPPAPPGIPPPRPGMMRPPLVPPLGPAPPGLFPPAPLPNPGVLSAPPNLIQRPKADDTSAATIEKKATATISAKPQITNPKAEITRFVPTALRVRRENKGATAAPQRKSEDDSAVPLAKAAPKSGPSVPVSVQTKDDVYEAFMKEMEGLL

The list shows a part of the results. Most values lie at the level of the controls, where differences are scatter.

Compound in this experiment: CN[C@@H]1C[C@H]2O[C@@](C)([C@@H]1OC)n1c3ccccc3c3c4c(c5c6ccccc6n2c5c31)C(=O)NC4 [staurosporine]
Description: log2 fold change of tryptic peptide abundance, ligand vs vehicle (limited proteolysis) (log2 ratio); higher = more trypsin-susceptible (destabilized). Conditions: ligand concentration: 20 uM; sample: K562 cleared lysate; digestion: 4 min, 22 C (HT-PELSA RT4min, Orbitrap Astral).
As for “CARD8 (peptide sequence: ECPEKSSSSEEELPR, peptide start residue: 5) (UniProt Q9Y2G2)”, the log2 fold change was -0.66.

Take “SBDS (peptide sequence: FILPVNEGK, peptide start residue: 176) (UniProt Q9Y3A5)”: the log2 fold change is 0.336.

For the target “UniProt Q9Y320 (peptide sequence: YNCTGLNFGK, peptide start residue: 184)”, the log2 fold change amounted to 0.368.

As for “COG5 (peptide sequence: KPDYDPEK, peptide start residue: 465) (UniProt Q9UP83)”, the log2 fold change worked out at 0.407.

Take “SAMD4A (peptide sequence: TLLDISGYR, peptide start residue: 560) (UniProt Q9UPU9)”: the log2 fold change turned out to be 0.149.

“NOB1 (peptide sequence: VSVTVSDDGTLHMHFSR, peptide start residue: 296) (UniProt Q9ULX3)”: the log2 fold change was -0.784.

Turning to “CNOT6 (peptide sequence: VLPFELGK, peptide start residue: 111) (UniProt Q9ULM6)”, the log2 fold change turned out to be 0.201.

With “UniProt Q9Y2A4 (peptide sequence: AFVYPSVFQR, peptide start residue: 401)”, the log2 fold change is -0.0254.

Consider “CIZ1 (peptide sequence: DISREEWK, peptide start residue: 770) (UniProt Q9ULV3)”, for which the log2 fold change was -0.361.

With “FAF1 (peptide sequence: EMAEQFR, peptide start residue: 532) (UniProt Q9UNN5)”, the log2 fold change was -0.0866.

With “UniProt Q9Y2J8 (peptide sequence: YIHILGR, peptide start residue: 226)”, the log2 fold change turned out to be 0.0692.

In the case of “BAIAP2 (peptide sequence: CQAELKK, peptide start residue: 137) (UniProt Q9UQB8)”, the log2 fold change is -0.403.

For the target “UBE2J1 (peptide sequence: LSTSPDVIQGHQPR, peptide start residue: 265) (UniProt Q9Y385)”, the log2 fold change is -0.156.

In the case of “FBXO3 (peptide sequence: LVVPGLLGSMALSNHYR, peptide start residue: 154) (UniProt Q9UK99)”, the log2 fold change was -0.0795.

Take “SARDH (peptide sequence: EALEQQR, peptide start residue: 926) (UniProt Q9UL12)”: the log2 fold change was -0.0982.

As for “STAP1 (peptide sequence: NYSITIR, peptide start residue: 210) (UniProt Q9ULZ2)”, the log2 fold change is -0.0587.

As for “HPS5 (peptide sequence: VSHLSLISVER, peptide start residue: 349) (UniProt Q9UPZ3)”, the log2 fold change came out at 0.65.

For “MAST1 (peptide sequence: DLKPDNLLITSMGHIK, peptide start residue: 635) (UniProt Q9Y2H9)”, the log2 fold change is -0.406.

Turning to “NUDT5 (peptide sequence: TTYMDPTGK, peptide start residue: 34) (UniProt Q9UKK9)”, the log2 fold change stood at 0.0876.

Consider “TRAPPC4 (peptide sequence: VGHAVLAINGMDVNGR, peptide start residue: 59) (UniProt Q9Y296)”, for which the log2 fold change was determined as 0.58.

For “PIN4 (peptide sequence: IMEAMEK, peptide start residue: 51) (UniProt Q9Y237)”, the log2 fold change was -0.281.

Turning to “ZHX1 (peptide sequence: INNWDRGPSLIK, peptide start residue: 766) (UniProt Q9UKY1)”, the log2 fold change stood at 0.169.

Take “GIT1 (peptide sequence: LQAENLQLR, peptide start residue: 464) (UniProt Q9Y2X7)”: the log2 fold change is -0.141.

As for “GAB2 (peptide sequence: ANHTFNSSSSQYCR, peptide start residue: 552) (UniProt Q9UQC2)”, the log2 fold change was determined as 0.96.

For “WDR37 (peptide sequence: YAGHVGSVNSIK, peptide start residue: 195) (UniProt Q9Y2I8)”, the log2 fold change came to 0.81.

“ZC3H4 (peptide sequence: SQLQQFSHIK, peptide start residue: 954) (UniProt Q9UPT8)”: the log2 fold change is -0.339.

On to “UniProt Q9UPN6 (peptide sequence: KGDNVPQVNGENTER, peptide start residue: 1207)”, for which the log2 fold change is -0.143.

Regarding “SNX6 (peptide sequence: DVDDFFEHER, peptide start residue: 205) (UniProt Q9UNH7)”, the log2 fold change was -0.153.

As to “ZNF148 (peptide sequence: SGMNSPLR, peptide start residue: 661) (UniProt Q9UQR1)”, the log2 fold change worked out at 0.626.

With “RPL26L1 (peptide sequence: HFNAPSHVR, peptide start residue: 18) (UniProt Q9UNX3)”, the log2 fold change amounted to 0.0972.

Take “UniProt Q9Y2J0 (peptide sequence: TGGVGGYPAVGAR, peptide start residue: 333)”: the log2 fold change is -0.244.

Regarding “MRPS2 (peptide sequence: FMEPYIFGSR, peptide start residue: 101) (UniProt Q9Y399)”, the log2 fold change is -0.171.

As for “UniProt Q9Y2I7 (peptide sequence: LQDLFQQEK, peptide start residue: 1508)”, the log2 fold change was -0.431.

Take “SNX24 (peptide sequence: KHFVEKR, peptide start residue: 32) (UniProt Q9Y343)”: the log2 fold change came out at 0.364.

For the target “WBP11 (peptide sequence: DNGERDNNEEKK, peptide start residue: 292) (UniProt Q9Y2W2)”, the log2 fold change is -0.601.

Take “DUSP12 (peptide sequence: MNEGFEWQLK, peptide start residue: 154) (UniProt Q9UNI6)”: the log2 fold change is -0.105.
